Measured values as given in publication doi:10.1101/2023.09.06.556483.
Results are given in words; binding and its absence hold for the method and conditions named.

Biological target: PICLN (Arabidopsis) (Arabidopsis thaliana)
Experiment: two-hybrid

B1: AtPRMT7 (enzyme, UniProt Q944R7 1-724)
chain: MSPLSSLPPKTFISSFHCHSVTRLRRSVTARTMSSQSSQRVFQLRQDPLTGNSEWIVIEDNDQPGTSTDGLLATTSYLDMLNDSRRNIAYRLAIEKTITEPCHVLDIGAGTGLLSMMAVRAMRGDSKGMVTACESYLPMVKLMRKVMHKNGMTKNINLINKRSDELKVGSEDIASRADVLVSEILDSELLGEGLIPSLQHAHDMLLVDNPKTVPYRATTYCQLVESTFLCNLQDLRNNEAKTSDGVRLVPPGLESLFGIKSQQYSMHVDAIEKEIKLLSEPVKIFEFDFWKRPESNGELDVHIEAKTTGSVHAIISWWVLQLDSEGTIFYSTAPRWIDSNSEIGVRDWCDHWKQCVWFTPGTGVSISKGEKVHLHASHTCTNILYNLKKTQSLTHERTHFPLSTGDLHLTLPPERVAIYGDSIYRQSLFEATRKALQGKSYPQCLVIDDSLLLPLMALHISNRSRVLSLSPGLQENAARYFEAIADSNGFSKDRFEYFRDGKTNLAKAYPGKIDLLIGEPYYSGLENGLPWQNLRFWKDRTLLDSVLSEDAVVMPYKGVLRGCAMYLPDLWKSRCCLGSVEGFDHTLVNTTLGGCGDLPSGKDSPCLPFFIWQCGETKILSKEFTVMEFDFSKPITGPCSGEVQIEFIKPGVCHGIALWMDWVMDEENSTVISTGPDDKYWKQGVKLLGKPVTVRMEGPSSSIGIQASLDLSSNSELIVTHTIS
B1 was tested, and the binding was “no binding”.
